# Assay results: PubChem BioAssay AID493014 (National Center for Advancing Translational Sciences (NCATS), 2011)
# This is one part of the list. These are further read-outs of the screen, such as a control signal, another cell line or another target. No call is given for them. The list favours compounds with an active or inconclusive main result. Potencies come from curve fits of mixed quality, noted in brackets. Peptide text beside a SMILES is read from it. * marks the point of attachment. Cbz = O=C(OCc1ccccc1)*
# Test: qHTS Assay to Find Inhibitors of Chronic Active B-Cell Receptor Signaling
# Conditions: ABC-DLBCL IkBa-CBG/CBR reporter, luminescence ratio (green luciferase fused to IkBa over red control in TMD8 lymphoma cells), 4 h
# How it was run: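 TMD8 human ABC-DLBCL cells with doxycycline-inducible IκBα–green luciferase fusion and unfused red luciferase, in 0.5% FBS medium; compounds up to 46 uM, 4 h at 37C. Green/red luminescence ratio, filter-overlap corrected, fitted to concentration-response curves.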
# [1] = measured here: CBR red luminescence, cell number
# [2] = measured here: IkBa-CBG green luminescence
SMILES,AC50 [1],AC50 [2]
Cc1nn(CC(=O)NCC2CCCO2)c(C)c1[N+](=O)[O-] (stereo unspecified),"22.4 µM [falling, single point]",
Cc1cccc(NC(=O)Nc2cccc3ccccc23)c1,"0.0891 µM [falling, full curve, poor fit]",
CC(CN1c2ccccc2Sc2ccccc21)N(C)C (stereo unspecified),"10 µM [falling, partial curve, poor fit]",
CCc1cc2c(=O)n(Cc3ccco3)c(SCC(=O)NC3CCS(=O)(=O)C3)nc2s1 (stereo unspecified),"35.5 µM [falling, single point]",
COc1ccc(CC(=O)Nc2ccc(N(C)C)c3ccccc23)cc1,"10 µM [rising, partial curve, poor fit]",
CC(=O)N(c1ccc(N(C(C)=O)S(=O)(=O)c2cccs2)cc1)S(=O)(=O)c1cccs1,"1.03 µM [falling, full curve, poor fit]",
O=C(c1ccc(S(=O)(=O)Cc2cc(F)ccc2F)c([N+](=O)[O-])c1)N1CCCC1,"35.5 µM [falling, single point]",
COc1ccc2nc(NC(=O)c3c(C)noc3C)sc2c1,"23.1 µM [falling, partial curve]",
Cc1cc(C(=O)O)ccc1N/C=C1\CCCC(C)C1=O (stereo unspecified),"0.082 µM [falling, full curve, poor fit]",
Cc1ccsc1C(=O)OCC(=O)c1cc(C)n(C)c1C,"3.66 µM [falling, single point]",
O=C(CCS(=O)(=O)c1ccccc1)N(CCCN1CCOCC1)c1nc2ccc(F)cc2s1,"32.6 µM [falling, partial curve, poor fit]",
COC(=O)c1ccccc1NC(=O)c1cc(C2CC2)on1,"2.06 µM [falling, full curve, poor fit]",
CC(=O)n1c(Cl)c(NC(=O)CCl)c2ccccc21,"5.17 µM [falling, partial curve, poor fit]",
Cc1cccc(N2CCN(C(=O)CCC(=O)N3CCOc4ccc(Cl)cc43)CC2C)c1 (stereo unspecified),"22.4 µM [falling, single point]",
CCOC(=O)c1c(C)nn(-c2ccc(NC(=O)/C=C/C(=O)O)cc2)c1C,"7.08 µM [rising, partial curve, poor fit]",
COc1cc(C(c2sc3nc(C)nn3c2O)N2CCN(c3ccccc3)CC2)cc(OC)c1OC (stereo unspecified),,"23.1 µM [falling, partial curve, poor fit]"
COc1ccc(/C=N/N=C2\CC3CCC2(C)C3(C)C)cc1O (stereo unspecified),"4.61 µM [falling, full curve]","3.26 µM [rising, full curve, poor fit]"
Cn1c(SCc2cccc(C(F)(F)F)c2)nnc1-c1ccco1,"4.47 µM [rising, partial curve, poor fit]",
O=C(Cc1nc2ccccc2[nH]c1=O)c1ccccc1,"1 µM [falling, full curve]",
Cc1ccc2nc(N3CCN(c4ccccc4)CC3)c(C=O)c(=O)n2c1,"20 µM [rising, partial curve, poor fit]",
CNS(=O)(=O)c1cccc(C(=O)OCC(=O)Nc2nc(OC)cc(OC)n2)c1,"10.3 µM [falling, single point]",

# 3 of these compounds, reformatted.
SMILES | AC50 [1] | AC50 [2]
CC(=O)n1c(Cl)c(NC(=O)CCl)c2ccccc21 | 5.17 µM [falling, partial curve, poor fit] | 
Cc1cccc(N2CCN(C(=O)CCC(=O)N3CCOc4ccc(Cl)cc43)CC2C)c1 (stereo unspecified) | 22.4 µM [falling, single point] | 
COc1cc(C(c2sc3nc(C)nn3c2O)N2CCN(c3ccccc3)CC2)cc(OC)c1OC (stereo unspecified) |  | 23.1 µM [falling, partial curve, poor fit]

# Later entries.

SMILES,AC50 [1],AC50 [2]
O=C(Nc1ccc(C(F)(F)F)cc1)c1ccccc1Br,"20 µM [falling, partial curve, poor fit]",
CCOc1ccc(C(CC(=O)O)NC(=O)COc2ccccc2)cc1OC (stereo unspecified),"35.5 µM [falling, partial curve, poor fit]",
CC(OC(=O)Cc1ccc(Br)cc1)C(=O)NC1CCCC1 (stereo unspecified),"0.259 µM [falling, full curve]",
Cc1cccc(-c2nnc(NC(=O)c3cccs3)s2)c1,"1.3 µM [falling, full curve]",
C/C1=C\CCC2C(/C=C(\C)CC1)OC(=O)C2CN1CCCCC1 (stereo unspecified),"3.55 µM [falling, full curve]",
Cc1ccc(CNS(=O)(=O)CCNC(=O)c2ccccc2)cc1,"29.1 µM [rising, partial curve, poor fit]",
CNc1nc(SCC(=O)Nc2ccccc2)nc(N2CCOCC2)n1,"0.631 µM [rising, full curve, poor fit]",
CCN(CC)CCOC(=O)c1ccc(NC(=O)c2cn(-c3ccccc3)nc2-c2cccs2)cc1,"22.4 µM [falling, single point]",
Cc1ccc(NC(=O)c2cc3ccccc3oc2=N)cc1,"11.2 µM [falling, partial curve, poor fit]",
COc1cc(-c2nc3c4ccccc4nc(=S)n3[nH]2)cc(OC)c1OC,"2 µM [rising, partial curve, poor fit]",
CCC(=O)Oc1ccc(C(=O)Nc2cccc(C(=O)NCC(C)C)c2)cc1,"1.78 µM [falling, partial curve, poor fit]",
COc1ccccc1OCCNc1ccc(S(=O)(=O)N2CCCC2)cn1,"13 µM [falling, partial curve, poor fit]",
CCOC(=O)c1cc(-c2ccc(OC)cc2)n[nH]1,"35.5 µM [falling, single point]",
CC(/C=C/c1ccccc1)=N/NC(=O)Cn1nnc(N)n1,"8.91 µM [rising, partial curve]",
CCC(=O)NC(Nc1sc2c(c1C(=O)OC)CCC2)C(Cl)(Cl)Cl (stereo unspecified),"25.9 µM [falling, single point]","10.3 µM [rising, partial curve, poor fit]"
Cc1ccc(C)c(S(=O)(=O)Nc2ccc(C(=O)N3CC(C)OC(C)C3)cc2)c1 (stereo unspecified),"0.184 µM [rising, full curve, poor fit]",
Cc1ccc(-c2nc(CS(=O)CC(=O)N3CCN(c4ccc(Cl)cc4)CC3)c(C)o2)cc1 (stereo unspecified),"11.2 µM [falling, partial curve, poor fit]",
CCOC(=O)c1ccc(NC(=S)NC(=O)c2cncc(Br)c2)cc1,"35.5 µM [rising, single point]",
O=C(N/N=C\c1cn[nH]c1-c1ccccc1)c1cccnc1,"29.1 µM [falling, single point]",
COc1ccc(-c2cn3c(C)c(C(=O)N4CCN(c5ccccc5F)CC4)sc3n2)cc1,"17.8 µM [falling, partial curve, poor fit]",
O=C(c1ccc(Cl)c(S(=O)(=O)NCc2ccco2)c1)N1CCN(c2ccc(F)cc2)CC1,"0.517 µM [falling, full curve, poor fit]",

SMILES,AC50 [1],AC50 [2]
Cc1ccc(Cl)cc1NC(=O)c1cc(NC(=O)CCCC(=O)O)ccc1N1CCCCC1,"35.5 µM [falling, single point]",
CCCC[C@]12Cc3ccccc3C(O1)c1c(cc(-c3ccccc3)oc1=O)O2,"1.12 µM [rising, partial curve]","1.26 µM [falling, single point]"
Cc1nc(-c2ccc(NC(=O)CC(C)C)cc2)cs1,"29.1 µM [falling, single point]",
CCOC(=O)CON1C(=O)c2ccccc2C1=O,"8.2 µM [rising, partial curve, poor fit]",
CCc1cc2ccc(C)cc2nc1SCC(=O)c1ccc(NC(C)=O)cc1,"7.08 µM [rising, full curve, poor fit]",
Fc1cc(Br)ccc1COc1ccc(-c2nnco2)cc1,"10 µM [rising, partial curve, poor fit]",
C/C(=N\NC1=NCCN1)c1ccc(N)c([N+](=O)[O-])c1,"8.91 µM [falling, partial curve, poor fit]",
N#Cc1ccc2[nH]c(CO)c(-c3ccccc3)c2c1,"7.94 µM [falling, partial curve, poor fit]",
O=C(COC(=O)COc1ccccc1F)NCCc1ccc(F)cc1,"6.51 µM [falling, single point]",
O=C(NC(Cc1ccccc1)C(=O)N1CCN(c2ccccn2)CC1)c1ccco1 (stereo unspecified),"2.59 µM [falling, partial curve, poor fit]",
CCC(C)C(NC(=O)C(C)NC(=O)CNC(=O)CNC(=O)OCc1ccccc1)C(=O)OC (stereo unspecified) (Cbz-GGAI-OMe; configuration not given here),"16.4 µM [rising, partial curve, poor fit]",
CCOc1ccc(C2NC(=O)C(C#N)=C(S)N2c2ccc(C)cc2)cc1OC (stereo unspecified),"7.31 µM [rising, partial curve]",
O=C(COc1ccccc1Cc1ccccc1)Nc1cccnc1,"0.92 µM [rising, partial curve]",
O=C(COc1ccc(Br)cc1CO)Nc1ccccc1,"11.2 µM [falling, partial curve]",
COc1cccc(-c2sc3ccc(OC)cc3c2C#CC(C)(C)O)c1,"29.1 µM [falling, single point]",
CC1CCCC(NC(=O)CN(C)CC(=O)Nc2ccc(F)cc2)C1C (stereo unspecified),"3.66 µM [falling, full curve, poor fit]",
O=S(=O)(O)Oc1c[nH]c2ccccc12,"16.4 µM [falling, partial curve]",
CCOC(=O)c1ccc(NC(=O)c2nc[nH]c2C(=O)N2CCC(C)CC2)cc1,"10 µM [rising, partial curve, poor fit]",
CCc1ccccc1NC1=NCC(=O)N1C1CCCCC1,"5.01 µM [falling, full curve]",
Cc1c(Cl)cccc1NC(=O)Nc1ccn(C)n1,"32.6 µM [falling, single point]",
CCCc1nc2oc3c(NCCN(C)C)ncnc3c2c2c1CCCC2,"17.8 µM [falling, partial curve, poor fit]",
